Assay results: article PMC10632561
These are yes or no findings as the source states them, for the method shown. Binding seen in cells or lysates may run through a third protein. Some binding calls cover weakened binding; strength is not graded here. Tags and fused reporters may be left off the sequences shown.

The chains behind the UniProt entries cited, without tags or fusion partners. Where a name states a change or a piece, a line headed by the entry shows the natural chain unless it says otherwise.
UniProt Q09472: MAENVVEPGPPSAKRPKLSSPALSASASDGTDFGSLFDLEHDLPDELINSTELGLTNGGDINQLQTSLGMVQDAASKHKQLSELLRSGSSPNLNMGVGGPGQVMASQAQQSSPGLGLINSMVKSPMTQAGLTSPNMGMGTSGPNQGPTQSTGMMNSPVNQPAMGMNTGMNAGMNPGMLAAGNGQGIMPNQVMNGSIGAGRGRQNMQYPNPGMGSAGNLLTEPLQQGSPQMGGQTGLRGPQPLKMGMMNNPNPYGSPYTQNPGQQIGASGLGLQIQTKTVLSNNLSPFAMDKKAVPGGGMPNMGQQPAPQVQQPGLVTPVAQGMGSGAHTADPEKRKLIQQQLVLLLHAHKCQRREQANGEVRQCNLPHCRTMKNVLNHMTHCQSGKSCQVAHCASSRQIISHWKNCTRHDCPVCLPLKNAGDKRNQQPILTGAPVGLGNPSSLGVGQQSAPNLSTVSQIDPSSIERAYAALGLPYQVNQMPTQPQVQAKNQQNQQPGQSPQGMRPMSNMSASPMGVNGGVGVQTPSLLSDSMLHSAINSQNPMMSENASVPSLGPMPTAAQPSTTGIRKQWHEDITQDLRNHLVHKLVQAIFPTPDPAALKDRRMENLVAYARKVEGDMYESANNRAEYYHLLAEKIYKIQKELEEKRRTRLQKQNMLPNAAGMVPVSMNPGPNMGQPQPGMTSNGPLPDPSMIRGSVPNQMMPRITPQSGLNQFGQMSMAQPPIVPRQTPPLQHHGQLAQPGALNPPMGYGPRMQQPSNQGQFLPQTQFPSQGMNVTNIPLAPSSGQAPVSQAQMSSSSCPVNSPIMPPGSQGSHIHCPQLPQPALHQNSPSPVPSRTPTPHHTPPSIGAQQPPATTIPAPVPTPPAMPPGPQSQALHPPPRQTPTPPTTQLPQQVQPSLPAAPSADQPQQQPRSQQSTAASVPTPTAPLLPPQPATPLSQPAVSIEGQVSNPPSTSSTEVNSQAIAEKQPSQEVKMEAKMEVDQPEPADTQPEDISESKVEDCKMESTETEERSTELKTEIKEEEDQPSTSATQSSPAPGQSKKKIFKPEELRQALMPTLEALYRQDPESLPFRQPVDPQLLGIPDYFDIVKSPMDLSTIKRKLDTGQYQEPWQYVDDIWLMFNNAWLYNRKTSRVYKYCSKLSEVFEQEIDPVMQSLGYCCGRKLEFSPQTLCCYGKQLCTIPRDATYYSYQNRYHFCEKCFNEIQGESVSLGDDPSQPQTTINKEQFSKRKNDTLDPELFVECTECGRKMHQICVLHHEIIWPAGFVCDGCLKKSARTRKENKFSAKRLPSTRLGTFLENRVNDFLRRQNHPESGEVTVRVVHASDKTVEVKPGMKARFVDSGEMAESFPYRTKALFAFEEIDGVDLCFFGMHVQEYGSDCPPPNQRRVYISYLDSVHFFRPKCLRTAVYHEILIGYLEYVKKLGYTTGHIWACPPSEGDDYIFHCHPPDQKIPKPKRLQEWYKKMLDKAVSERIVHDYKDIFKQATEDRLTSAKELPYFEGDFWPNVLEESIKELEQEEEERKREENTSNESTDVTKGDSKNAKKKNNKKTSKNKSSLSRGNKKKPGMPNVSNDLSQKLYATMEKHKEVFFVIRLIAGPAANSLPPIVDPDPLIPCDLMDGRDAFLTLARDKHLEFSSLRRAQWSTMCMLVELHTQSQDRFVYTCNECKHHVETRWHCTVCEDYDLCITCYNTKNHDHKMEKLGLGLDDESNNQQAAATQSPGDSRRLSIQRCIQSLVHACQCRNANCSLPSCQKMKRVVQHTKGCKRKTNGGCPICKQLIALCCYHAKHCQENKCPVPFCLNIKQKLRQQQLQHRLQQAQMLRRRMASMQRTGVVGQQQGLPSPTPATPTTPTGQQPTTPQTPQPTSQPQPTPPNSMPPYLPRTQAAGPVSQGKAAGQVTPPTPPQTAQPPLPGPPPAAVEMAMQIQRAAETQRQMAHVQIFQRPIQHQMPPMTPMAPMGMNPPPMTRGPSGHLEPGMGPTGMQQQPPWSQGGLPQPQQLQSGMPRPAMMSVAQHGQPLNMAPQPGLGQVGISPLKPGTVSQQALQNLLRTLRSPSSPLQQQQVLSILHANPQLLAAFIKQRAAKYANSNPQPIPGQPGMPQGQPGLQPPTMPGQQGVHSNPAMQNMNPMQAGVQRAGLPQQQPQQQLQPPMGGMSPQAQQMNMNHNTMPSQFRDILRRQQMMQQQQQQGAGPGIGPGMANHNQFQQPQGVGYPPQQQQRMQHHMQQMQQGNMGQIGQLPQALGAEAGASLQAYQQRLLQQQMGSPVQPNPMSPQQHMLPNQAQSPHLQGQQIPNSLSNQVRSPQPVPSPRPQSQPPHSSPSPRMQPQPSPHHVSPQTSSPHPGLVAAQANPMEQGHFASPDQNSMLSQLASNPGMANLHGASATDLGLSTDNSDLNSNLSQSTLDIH
UniProt Q9Y4A5: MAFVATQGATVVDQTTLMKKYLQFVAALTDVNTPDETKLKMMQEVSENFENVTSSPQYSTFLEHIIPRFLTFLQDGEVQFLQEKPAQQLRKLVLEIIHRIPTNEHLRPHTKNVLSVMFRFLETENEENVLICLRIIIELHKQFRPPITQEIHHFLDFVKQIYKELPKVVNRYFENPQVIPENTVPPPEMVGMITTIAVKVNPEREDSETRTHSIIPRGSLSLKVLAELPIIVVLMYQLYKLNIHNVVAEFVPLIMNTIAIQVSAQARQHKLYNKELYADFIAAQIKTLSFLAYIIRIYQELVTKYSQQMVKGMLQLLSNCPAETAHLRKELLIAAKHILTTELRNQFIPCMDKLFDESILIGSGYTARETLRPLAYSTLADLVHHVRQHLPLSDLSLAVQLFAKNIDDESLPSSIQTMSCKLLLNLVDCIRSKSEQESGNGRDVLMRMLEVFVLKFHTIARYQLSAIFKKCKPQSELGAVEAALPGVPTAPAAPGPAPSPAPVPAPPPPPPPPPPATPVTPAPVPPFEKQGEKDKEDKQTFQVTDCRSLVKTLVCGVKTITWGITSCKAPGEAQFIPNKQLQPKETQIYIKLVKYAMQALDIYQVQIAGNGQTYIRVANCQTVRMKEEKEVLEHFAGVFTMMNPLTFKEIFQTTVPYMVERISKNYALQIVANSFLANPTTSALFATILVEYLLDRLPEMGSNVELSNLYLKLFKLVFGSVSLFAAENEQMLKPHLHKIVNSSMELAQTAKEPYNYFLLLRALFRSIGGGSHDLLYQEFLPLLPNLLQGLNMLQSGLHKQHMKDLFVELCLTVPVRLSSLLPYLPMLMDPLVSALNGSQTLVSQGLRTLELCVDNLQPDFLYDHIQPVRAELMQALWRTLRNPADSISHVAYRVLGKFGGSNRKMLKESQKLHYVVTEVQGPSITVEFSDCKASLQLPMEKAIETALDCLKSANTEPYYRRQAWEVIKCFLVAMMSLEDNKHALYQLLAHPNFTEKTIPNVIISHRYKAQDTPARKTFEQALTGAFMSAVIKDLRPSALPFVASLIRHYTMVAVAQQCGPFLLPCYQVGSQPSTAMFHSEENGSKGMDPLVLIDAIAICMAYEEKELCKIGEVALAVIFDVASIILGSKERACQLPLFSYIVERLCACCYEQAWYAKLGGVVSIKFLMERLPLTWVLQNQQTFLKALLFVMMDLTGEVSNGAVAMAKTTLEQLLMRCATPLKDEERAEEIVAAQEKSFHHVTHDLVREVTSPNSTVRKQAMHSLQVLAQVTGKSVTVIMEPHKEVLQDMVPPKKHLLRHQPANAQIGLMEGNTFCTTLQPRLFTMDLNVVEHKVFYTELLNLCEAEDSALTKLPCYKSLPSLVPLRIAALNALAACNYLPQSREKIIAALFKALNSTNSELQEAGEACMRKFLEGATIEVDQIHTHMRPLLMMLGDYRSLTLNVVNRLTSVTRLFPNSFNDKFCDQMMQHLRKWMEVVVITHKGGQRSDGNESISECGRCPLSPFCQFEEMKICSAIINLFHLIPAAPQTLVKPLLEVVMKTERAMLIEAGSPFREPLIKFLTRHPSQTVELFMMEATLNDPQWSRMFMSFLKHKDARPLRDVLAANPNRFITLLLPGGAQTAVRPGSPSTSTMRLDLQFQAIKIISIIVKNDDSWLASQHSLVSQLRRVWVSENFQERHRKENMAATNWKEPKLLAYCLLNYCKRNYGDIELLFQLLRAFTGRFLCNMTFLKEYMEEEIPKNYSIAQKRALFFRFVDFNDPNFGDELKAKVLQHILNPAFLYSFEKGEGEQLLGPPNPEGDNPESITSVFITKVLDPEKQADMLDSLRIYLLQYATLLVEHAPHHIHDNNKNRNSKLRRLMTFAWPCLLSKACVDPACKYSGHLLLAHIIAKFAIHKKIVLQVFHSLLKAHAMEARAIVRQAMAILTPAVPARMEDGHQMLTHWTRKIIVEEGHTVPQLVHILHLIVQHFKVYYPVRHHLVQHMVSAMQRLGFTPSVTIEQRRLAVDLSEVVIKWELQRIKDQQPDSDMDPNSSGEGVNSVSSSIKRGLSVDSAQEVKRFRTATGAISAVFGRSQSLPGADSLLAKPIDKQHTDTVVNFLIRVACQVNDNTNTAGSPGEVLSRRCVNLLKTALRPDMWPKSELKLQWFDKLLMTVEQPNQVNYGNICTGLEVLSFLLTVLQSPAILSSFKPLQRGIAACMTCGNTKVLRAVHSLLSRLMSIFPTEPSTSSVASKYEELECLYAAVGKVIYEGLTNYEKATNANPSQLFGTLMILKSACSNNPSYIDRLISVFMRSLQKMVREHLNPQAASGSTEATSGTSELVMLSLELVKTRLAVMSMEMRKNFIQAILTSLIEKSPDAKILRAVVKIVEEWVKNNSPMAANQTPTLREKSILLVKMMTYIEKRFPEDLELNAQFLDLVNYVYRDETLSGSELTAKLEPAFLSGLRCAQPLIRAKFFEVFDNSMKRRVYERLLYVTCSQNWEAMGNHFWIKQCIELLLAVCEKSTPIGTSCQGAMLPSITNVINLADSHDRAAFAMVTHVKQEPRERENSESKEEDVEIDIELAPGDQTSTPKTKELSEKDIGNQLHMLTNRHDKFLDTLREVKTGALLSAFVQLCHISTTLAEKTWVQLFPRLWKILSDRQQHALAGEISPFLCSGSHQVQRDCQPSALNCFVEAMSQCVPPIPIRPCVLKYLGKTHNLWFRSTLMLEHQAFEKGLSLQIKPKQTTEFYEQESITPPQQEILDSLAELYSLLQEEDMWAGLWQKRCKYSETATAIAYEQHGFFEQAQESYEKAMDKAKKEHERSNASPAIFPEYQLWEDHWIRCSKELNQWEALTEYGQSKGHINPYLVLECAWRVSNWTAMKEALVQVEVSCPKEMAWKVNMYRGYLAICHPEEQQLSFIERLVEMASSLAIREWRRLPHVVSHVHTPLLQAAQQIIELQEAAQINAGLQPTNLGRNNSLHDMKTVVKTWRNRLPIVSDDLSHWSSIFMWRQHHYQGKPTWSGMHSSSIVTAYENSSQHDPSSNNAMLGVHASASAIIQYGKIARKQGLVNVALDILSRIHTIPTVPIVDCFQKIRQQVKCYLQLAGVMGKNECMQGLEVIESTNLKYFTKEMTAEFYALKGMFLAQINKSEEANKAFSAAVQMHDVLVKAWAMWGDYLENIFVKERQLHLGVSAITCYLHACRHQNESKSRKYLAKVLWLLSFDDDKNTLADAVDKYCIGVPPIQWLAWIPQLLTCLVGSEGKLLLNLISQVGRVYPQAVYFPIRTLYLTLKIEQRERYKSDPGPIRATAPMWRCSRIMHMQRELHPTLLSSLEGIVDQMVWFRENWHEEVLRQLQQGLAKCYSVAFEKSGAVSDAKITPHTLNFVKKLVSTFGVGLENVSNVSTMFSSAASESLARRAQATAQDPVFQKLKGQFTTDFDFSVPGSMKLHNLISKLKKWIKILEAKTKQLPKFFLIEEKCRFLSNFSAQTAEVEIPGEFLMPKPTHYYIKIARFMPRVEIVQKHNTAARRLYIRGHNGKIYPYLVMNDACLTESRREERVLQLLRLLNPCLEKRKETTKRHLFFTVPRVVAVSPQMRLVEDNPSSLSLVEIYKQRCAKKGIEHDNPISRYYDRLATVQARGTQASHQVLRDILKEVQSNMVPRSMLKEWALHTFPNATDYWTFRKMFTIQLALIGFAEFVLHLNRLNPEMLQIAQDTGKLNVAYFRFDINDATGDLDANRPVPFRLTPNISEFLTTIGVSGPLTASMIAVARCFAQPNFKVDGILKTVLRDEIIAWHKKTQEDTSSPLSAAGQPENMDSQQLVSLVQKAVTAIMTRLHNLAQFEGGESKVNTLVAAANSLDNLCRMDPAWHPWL

Biological target: T1, Histone-lysine N-methyltransferase SMYD3 (human (endogenous in HGC-27, HT-29, HCT-116)) (UniProt Q9H7B4)
T1 sequence: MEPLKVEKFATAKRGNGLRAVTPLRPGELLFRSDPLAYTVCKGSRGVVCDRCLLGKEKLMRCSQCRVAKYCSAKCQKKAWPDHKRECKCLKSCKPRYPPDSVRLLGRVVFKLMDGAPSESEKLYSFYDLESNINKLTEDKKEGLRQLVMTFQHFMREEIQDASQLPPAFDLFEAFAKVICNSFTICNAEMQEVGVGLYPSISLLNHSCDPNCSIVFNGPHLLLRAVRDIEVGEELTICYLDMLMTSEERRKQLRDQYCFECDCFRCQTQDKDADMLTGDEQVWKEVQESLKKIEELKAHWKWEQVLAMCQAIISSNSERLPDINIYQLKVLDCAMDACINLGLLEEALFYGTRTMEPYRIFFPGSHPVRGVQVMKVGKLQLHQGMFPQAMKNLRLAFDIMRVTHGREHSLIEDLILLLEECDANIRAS
Experiment: co-IP; endogenous proteins in whole cell lysates of HGC-27, HT-29 and HCT-116; lysis buffer 50 mM Tris-HCl pH 7.4, 5 mM EDTA, 250 mM NaCl, 1% Triton X-100; antibody (anti-SMYD3, anti-p300 or anti-TRRAP) on Dynabeads Protein A, 3 h at room temperature; immunoblot; anti-IgG and anti-GFP as controls

| binding | Substance |
| --- | --- |
| binds | E1A-associated Protein p300 (EP300) (from UniProt Q09472 1-2414) |
| binds | TRansformation/tRanscription domain-Associated Protein (TRRAP) (from UniProt Q9Y4A5 1-3859) |
